From PMC10435467 come the findings set out here.

By UniProt entry, the sequences of proteins in these tests, tags left out. Where a name states a change or a piece, a line headed by the entry shows the natural chain unless it says otherwise. Chains listed by the source or under a name are the forms on record and can include a tag or linker.
RORγt (P51450-2, form named): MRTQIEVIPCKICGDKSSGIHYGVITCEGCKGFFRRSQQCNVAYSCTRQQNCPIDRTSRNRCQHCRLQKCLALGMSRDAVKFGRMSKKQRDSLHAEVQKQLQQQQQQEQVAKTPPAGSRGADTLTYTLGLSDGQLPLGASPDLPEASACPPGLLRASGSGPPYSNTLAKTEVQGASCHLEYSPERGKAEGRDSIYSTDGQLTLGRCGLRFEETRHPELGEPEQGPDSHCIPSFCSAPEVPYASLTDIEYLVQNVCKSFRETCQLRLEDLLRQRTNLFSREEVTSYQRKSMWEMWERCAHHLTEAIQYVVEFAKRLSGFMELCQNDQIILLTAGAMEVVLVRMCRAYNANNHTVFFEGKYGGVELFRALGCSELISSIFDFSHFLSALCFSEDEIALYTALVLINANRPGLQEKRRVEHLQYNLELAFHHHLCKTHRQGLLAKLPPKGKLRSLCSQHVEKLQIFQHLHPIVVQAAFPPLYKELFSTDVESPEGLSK

In assay [1] the target is T1, Raftlin1 (mouse (endogenous in CD4+ T cells of C57BL/6 mice)) (UniProt Q6A0D4).
T1 sequence: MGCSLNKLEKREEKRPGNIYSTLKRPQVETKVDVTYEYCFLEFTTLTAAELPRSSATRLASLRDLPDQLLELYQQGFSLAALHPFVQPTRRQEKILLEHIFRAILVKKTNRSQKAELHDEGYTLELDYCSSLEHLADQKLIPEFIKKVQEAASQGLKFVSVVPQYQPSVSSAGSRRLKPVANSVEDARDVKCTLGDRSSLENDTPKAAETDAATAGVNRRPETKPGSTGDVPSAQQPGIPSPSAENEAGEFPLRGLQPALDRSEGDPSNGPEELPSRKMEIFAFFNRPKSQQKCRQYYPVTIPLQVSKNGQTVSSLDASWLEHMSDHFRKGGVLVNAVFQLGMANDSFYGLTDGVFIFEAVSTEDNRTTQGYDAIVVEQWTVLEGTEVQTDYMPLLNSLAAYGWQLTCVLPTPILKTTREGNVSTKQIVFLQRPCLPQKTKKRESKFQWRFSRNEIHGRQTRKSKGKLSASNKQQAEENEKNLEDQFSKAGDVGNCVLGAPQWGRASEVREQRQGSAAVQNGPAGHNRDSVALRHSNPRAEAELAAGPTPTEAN
As to the kind of experiment: co-IP; endogenous proteins, lysate of CD4+ T cells from colonic lamina propria of SFB colonized mice; IP with anti-RORγt or anti-Raftlin1, immunoblot.

Assay [2] has as its target T1, Raftlin1 (mouse (endogenous in CD4+ T cells of C57BL/6 mice)). As to the kind of experiment: co-IP; endogenous proteins, lysate (NP-40 buffer) of CD4+ T cells from colonic lamina propria of C. rodentium infected mice (WT or Raftlin1^ΔLLNSL); IP with anti-RORγt or anti-Raftlin1, protein A/G beads, immunoblot. In general terms: A western blot detects proteins with antibodies after separation by electrophoresis.

No constants are given. Whether binding was seen depends on the method and setting. In cells and extracts the contact can be indirect. Some entries that bind do so weakly or less than the wild type.

In the case of RORγt (from UniProt P51450-2 1-495), the figures for the binding entry in assay [1] and in assay [2] were “no binding (condition: in SFB colonized mice)” and “binds”, respectively.
